# Measured values published in PubChem BioAssay AID2685 (National Center for Advancing Translational Sciences (NCATS), 2010).
# Several values for one entry are separate records, joined by “and”; a condition that tells them apart may be missing. Equal entries are not always repeated. The list shows a part of the results. Further columns of the screen follow, without active or inactive calls. Compounds called inactive in the main read-out are mostly missing here. The note in brackets gives the kind of curve behind each potency; many fits are weak.
# Test: qHTS Assay for Lipid Storage Modulators in Drosophila S3 Cells;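 for cell number change: cells counted by Cell Tracker Red CMTPX staining in the red channel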
# Settings: BODIPY lipid droplet fluorescence, 18-24 h; for cell number change: measured here: cell count max response, cells fed with added oleic acid
# How it was run: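 Drosophila S3 cells got compounds at several concentrations plus oleic acid (400 uM solution). Laser-scanning cytometry with 488 nm excitation read lipid droplets at 500-530 nm and cells at 575-640 nm. Percent activity was relative to 20 uM Triacsin C.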
# [1] = measured here: lipid fluorescence (Fed channel) AC50, cells fed with added oleic acid
# [2] = measured here: cell number channel AC50, cells fed with added oleic acid
Compound,cell number change,AC50 [1],AC50 [2]
COc1cccc(C2NC(C)(C(=O)O)C3C(=O)N(C(C)C)C(=O)C23)c1O (stereo not given),-10.4%,"0.00517 µM [rising, full curve, poor fit]",
COc1ccc(N2CCN(C(CNC(=O)C(C)C)c3ccc4c(c3)OCO4)CC2)cc1 (stereo not given),-10.1%,"0.58 µM [falling, single point]",
COc1ccccc1-c1noc(COC(=O)c2ccc(Br)o2)n1,-23.5%,"8.2 µM [falling, partial curve, poor fit]",
O=C(/C=C/c1ccccc1)NCc1ccc2c(c1)OCO2,55.6%,,"7.31 µM [rising, partial curve]"
CN(C)c1ccc(NC(=S)c2ccc3ccccc3n2)cc1,-10.4%,"6.51 µM [falling, single point]",
O=C(COC(=O)Cn1cnc2ccccc2c1=O)NCCC1=CCCCC1,-4.6%,,"6.51 µM [falling, single point]"
c1ccc(CCCCN2CCN=C2Nc2ccccc2)cc1,18.6%,"18.4 µM [falling, single point]","0.731 µM [falling, single point]"
CC(C)c1ccc(NC(=O)c2cnn(-c3ccccc3)c2NC(=O)c2ccco2)cc1,-9.01%,"0.731 µM [falling, full curve, poor fit]",
COc1cc([N+](=O)[O-])ccc1NC(=O)Cc1ccccc1,157%,,
S=C(N/N=C1\C2CN3CCN(C2)CC1(c1ccccc1)C3)Nc1ccccc1,117%,"9.2 µM [rising, partial curve, poor fit]","29.1 µM [rising, single point]"
CN(C)c1ccc(-c2cc(O)c3ncccc3c2)cc1,21.3% and 25%,"20.6 µM [rising, single point]",
Cc1ccc(C(=O)NCCSc2snnc2C)cc1,59.9%,"13 µM [rising, partial curve]","8.2 µM [rising, partial curve]"
CN(c1cccc(NC(=O)Cc2ccccc2)c1)S(C)(=O)=O,10.6%,"29.1 µM [rising, partial curve, poor fit]",
COc1ccccc1C1=NOC(COC(=O)c2ccc(Br)cc2)C1 (stereo not given),-11.7%,,
Cc1ccc(C)c(NC(=S)NNC(=O)c2sccc2C)c1,33.7%,"4.11 µM [rising, full curve]","14.6 µM [rising, partial curve]"
COc1ccc(C)cc1Nc1c2c(nc3ccccc13)CCC2,-24.8%,"23.1 µM [falling, single point]",
O=C(c1ccc(Cl)cc1)N1CCC(c2nc(-c3cccs3)no2)CC1,-14.5%,"6.51 µM [rising, single point]",
O=C(CCS(=O)(=O)c1ccccc1)N1CCN(c2ccccc2)CC1,4.34%,"29.1 µM [rising, single point]",
N#C/C(=C\c1ccc(N2CCCCC2)o1)C(N)=O,-20.8%,"14.6 µM [falling, single point]",

# Arranged by number of heavy atoms (rising): 3 of the compounds above
Compound,cell number change,AC50 [1],AC50 [2]
Cc1ccc(C(=O)NCCSc2snnc2C)cc1,59.9%,"13 µM [rising, partial curve]","8.2 µM [rising, partial curve]"
Cc1ccc(C)c(NC(=S)NNC(=O)c2sccc2C)c1,33.7%,"4.11 µM [rising, full curve]","14.6 µM [rising, partial curve]"
COc1cccc(C2NC(C)(C(=O)O)C3C(=O)N(C(C)C)C(=O)C23)c1O (stereo not given),-10.4%,"0.00517 µM [rising, full curve, poor fit]",

# (cont.)

Compound,cell number change,AC50 [1],AC50 [2]
CC(=O)N1CCc2cc(S(=O)(=O)NCC(=O)NCc3ccc(F)cc3)ccc21,,"29.1 µM [rising, single point]",
Cn1ncc([N+](=O)[O-])c1C(=O)Nc1nccs1,-50%,,"2.59 µM [falling, partial curve, poor fit]"
CCCCN(CC)C(=O)CSc1cc(=O)n(C)c2ccccc12,,,"2.59 µM [rising, partial curve]"
CN1CCN(CC(=O)N/N=C/c2ccc(F)c(F)c2)CC1,-2.73%,"6.51 µM [rising, partial curve, poor fit]",
COC1=CCC2([N+](=O)[O-])CN(CC(=O)O)CC1([N+](=O)[O-])C2 (stereo not given),-22%,"0.082 µM [falling, full curve, poor fit]","0.116 µM [falling, full curve, poor fit]"
CC1=C(C(=O)OCc2ccccc2)C(c2ccco2)n2ncnc2N1 (stereo not given),,"6.51 µM [rising, single point]",
COC(=O)c1cc(NC(=O)c2cccc(C(F)(F)F)c2)c(=O)oc1C,-6.71%,"0.92 µM [rising, single point]",
COc1cccc(NC(=O)c2ccccc2-c2ccccc2)c1,10.8%,"0.13 µM [rising, full curve, poor fit]",
Cc1ccc(OCCOc2ccc(S(=O)(=O)N3CCCC3)cc2C(N)=O)cc1,-8.15%,,
CC(C)N(Cc1nc(-c2ccccc2)no1)C(=O)CSc1ccccc1,200%,"29.1 µM [rising, partial curve]","8.2 µM [rising, partial curve]"
CCc1cccc2c(C=C(C#N)C#N)cn(CC(=O)N3CCCCCC3)c12,31.6%,,"29.1 µM [rising, single point]"
CCCCOCCCNc1ncnc2c1[nH]c1ccccc12,-38.1%,"5.17 µM [falling, partial curve]","1.46 µM [falling, full curve, poor fit]"
Cc1cccc(Cn2c(N3CCN(C)CC3)nc3c2c(=O)[nH]c(=O)n3C)c1,16.6%,"0.0651 µM [rising, full curve, poor fit]",
OCCOCCOc1ccc(-c2nn[nH]n2)cc1,-50.7%,"3.66 µM [falling, full curve]","5.17 µM [falling, full curve, poor fit]"
COC(=O)c1c(C)oc2ccc(N(C(=O)Oc3ccccc3)S(=O)(=O)c3ccc(Cl)c([N+](=O)[O-])c3)cc12,11.8%,"29.1 µM [rising, single point]",
CCOc1cc(/C=N/NC(=O)c2cccc(S(=O)(=O)N3CCCC3)c2)ccc1OCC(=O)N(C)C,24.9%,,
COc1cccc(CN(C)C(=O)c2cc(S(=O)(=O)N3CCCCCC3)ccc2OC)c1,7.02%,"3.26 µM [falling, single point]",
O=C(NNC(=O)c1c(F)cccc1F)c1ccccc1-n1cccc1,7.74%,,"0.82 µM [rising, single point]"
